In article doi:10.1101/2024.09.09.612116:
No constants are given. Whether binding was seen depends on the method and setting. In cells and extracts the contact can be indirect. Some entries that bind do so weakly or less than the wild type. Where a sequence is shown, tags or fusion partners need not be part of it.

Chains of the proteins cited; added tags and fusions are not shown.
UniProt O75530: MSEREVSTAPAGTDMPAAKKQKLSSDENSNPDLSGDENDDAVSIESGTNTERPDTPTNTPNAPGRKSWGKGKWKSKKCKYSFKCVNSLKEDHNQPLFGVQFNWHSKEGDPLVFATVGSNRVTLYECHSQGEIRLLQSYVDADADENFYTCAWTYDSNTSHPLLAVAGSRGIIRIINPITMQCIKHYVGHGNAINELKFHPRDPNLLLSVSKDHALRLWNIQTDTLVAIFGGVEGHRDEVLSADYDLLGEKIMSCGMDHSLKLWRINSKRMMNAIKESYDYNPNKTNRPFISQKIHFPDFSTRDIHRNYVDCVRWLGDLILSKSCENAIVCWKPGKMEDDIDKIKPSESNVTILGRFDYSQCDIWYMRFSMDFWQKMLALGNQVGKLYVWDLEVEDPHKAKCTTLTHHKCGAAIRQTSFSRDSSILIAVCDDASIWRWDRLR

Assays:
[1] = target: T1, GFP-tagged DEK (pcDNA5/FRT/TO DEK-His-GFP, LAP-tag DEK fusion) (UniProt P35659); test: co-IP
T1 sequence: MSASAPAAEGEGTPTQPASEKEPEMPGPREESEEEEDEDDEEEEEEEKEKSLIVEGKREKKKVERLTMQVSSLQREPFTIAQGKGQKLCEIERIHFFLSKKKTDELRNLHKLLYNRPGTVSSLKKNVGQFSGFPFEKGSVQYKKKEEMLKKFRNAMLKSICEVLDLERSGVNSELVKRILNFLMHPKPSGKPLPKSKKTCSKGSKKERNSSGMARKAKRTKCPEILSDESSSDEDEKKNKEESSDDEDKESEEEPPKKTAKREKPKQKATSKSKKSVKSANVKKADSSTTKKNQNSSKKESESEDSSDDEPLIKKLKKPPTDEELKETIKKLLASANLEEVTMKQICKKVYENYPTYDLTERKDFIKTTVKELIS

[2] = target: T2, GFP-tagged DEK (pcDNA5/FRT/TO DEK-His-GFP, LAP-tag DEK fusion), P35659; test: co-IP; settings: remark: other sources report otherwise
T2 chain: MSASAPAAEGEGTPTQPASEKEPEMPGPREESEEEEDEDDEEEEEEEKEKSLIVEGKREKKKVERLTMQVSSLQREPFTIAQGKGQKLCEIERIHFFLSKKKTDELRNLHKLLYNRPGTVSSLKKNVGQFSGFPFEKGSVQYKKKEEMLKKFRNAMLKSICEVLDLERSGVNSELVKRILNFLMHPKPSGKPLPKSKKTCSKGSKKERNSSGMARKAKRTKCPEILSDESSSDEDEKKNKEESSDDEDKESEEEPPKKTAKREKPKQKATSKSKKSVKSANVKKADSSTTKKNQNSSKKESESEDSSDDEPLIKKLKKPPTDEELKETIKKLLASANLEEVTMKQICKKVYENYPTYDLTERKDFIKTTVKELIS

EED (PRC2 complex member) of HEK293 cells (from UniProt O75530 1-441)
binding [1]: binds

B1: endogenous DEK (untagged) of HEK293 cells, P35659 1-375 (protein)
chain: MSASAPAAEGEGTPTQPASEKEPEMPGPREESEEEEDEDDEEEEEEEKEKSLIVEGKREKKKVERLTMQVSSLQREPFTIAQGKGQKLCEIERIHFFLSKKKTDELRNLHKLLYNRPGTVSSLKKNVGQFSGFPFEKGSVQYKKKEEMLKKFRNAMLKSICEVLDLERSGVNSELVKRILNFLMHPKPSGKPLPKSKKTCSKGSKKERNSSGMARKAKRTKCPEILSDESSSDEDEKKNKEESSDDEDKESEEEPPKKTAKREKPKQKATSKSKKSVKSANVKKADSSTTKKNQNSSKKESESEDSSDDEPLIKKLKKPPTDEELKETIKKLLASANLEEVTMKQICKKVYENYPTYDLTERKDFIKTTVKELIS
binding [2]: binds
